These results are taken from PubChem BioAssay AID2685 (National Center for Advancing Translational Sciences (NCATS), 2010).

This is one part of the list. These are further read-outs of the screen, such as a control signal, another cell line or another target. No call is given for them. The list favours compounds with an active or inconclusive main result. The note in brackets gives the kind of curve behind each potency; many fits are weak.

The assay can be described thus: qHTS Assay for Lipid Storage Modulators in Drosophila S3 Cells.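 For cell number change: cells counted by Cell Tracker Red CMTPX staining in the red channel.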 To be noted: BODIPY lipid droplet fluorescence, 18-24 h; for cell number change: measured here: cell count max response, cells fed with added oleic acid. An outline of the steps: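 Laser-scanning cytometry quantifies lipid droplet accumulation (500–530 nm total intensity; droplet/cell object ratio) in oleic acid-fed (400 uM added) Drosophila S3 cells treated with a concentration series. 20 uM Triacsin C defined 100% inhibition.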

Where [1] appears, read: measured here: lipid fluorescence (Fed channel) AC50, cells fed with added oleic acid.
The mark [2] stands for this setting: measured here: cell number channel AC50, cells fed with added oleic acid.

`Cc1cc(NC(=O)Nc2ccc(Cl)cc2)n(-c2ccccc2)n1`: the cell number change stood at 14.2%. In general, AC50 refers to the concentration at which the activity in the assay is half-maximal. Low values mean activity at low concentration, high ones activity only at high concentration. As to `COc1ccc(/C=C2\SC(=S)N(Cc3cccnc3)C2=O)cc1C`, the cell number change is -17.3%. In addition, the AC50 under setting [1] was 29.1 µM [falling, single point].

On to `O=C(O)c1ccc(COc2ccccc2/C=C2\NC(=O)N(Cc3ccccc3)C2=O)cc1`, for which the cell number change amounted to 36.2%. For the same molecule, the AC50 under setting [2] was 2.59 µM [rising, full curve].

As for `O=C(CSc1nnc(COc2ccccc2)n1Cc1ccco1)Nc1ccc2c(c1)OCCO2`, the cell number change was -53.7%. Also, under setting [2], the AC50 is 16.4 µM [falling, partial curve]. In addition, the AC50 under setting [1] is 8.2 µM [falling, partial curve].

Take `N/C(=N\N=C\c1cccc([N+](=O)[O-])c1)c1nonc1N`: the cell number change was 4.08%. Moreover, the half-maximal activity concentration (AC50) under setting [1] was 0.0058 µM [falling, full curve, poor fit].

As to `CCOc1ccc(C(=O)C(C)OC(=O)CN2C(=O)NC(C)(C)C2=O)cc1` (stereo not drawn), the cell number change is -7.48%. On the same count and under the same terms, the result for `CCOc1cc(C2C3=C(CC(C)(C)CC3=O)OC3=C2C(=O)CC(C)(C)C3)cc([N+](=O)[O-])c1O` reads -12.3%. `CCn1c(SC(C)C(=O)NC2CCCC2)nc2cc(S(N)(=O)=O)ccc21` (stereo not drawn): the cell number change is 9.65%. Under setting [1], the AC50 was 6.51 µM [falling, single point]. `CCOC(=O)C1C(=O)CC(O)(c2ccccc2)CC1c1ccccc1` (stereo not drawn): the cell number change was -15.4%. Besides, the AC50 under setting [2] is 6.51 µM [falling, single point]. As for `CC(=O)N1N=C(c2ccncc2)CC1c1ccccc1O` (stereo not drawn), the cell number change was -6.48%. Further, the AC50 under setting [1] was 20.6 µM [rising, single point]. For the molecule `Cc1ccc(NC(=O)COC(=O)CNC(=O)C2CCCCC2)c(Br)c1`, the AC50 under setting [1] is 0.116 µM [rising, single point]. As for `CCc1cc(Cn2nc(-c3ccccc3)cc2C(=O)NCc2ccc(C)cc2)on1`, the cell number change was -35.8%. Under setting [2], the AC50 is 29.1 µM [falling, single point]. In addition, under setting [1], the AC50 was 20.6 µM [falling, single point].

Turning to `COc1cccc(/C=N/NC(=O)c2cccc([N+](=O)[O-])c2)c1OS(=O)(=O)c1ccc(C)cc1`, under setting [1], the AC50 is 2.91 µM [rising, single point].

For `COc1ccc(S(=O)(=O)N(C)C2CCN(C)CC2)cc1`, the cell number change came out at 0.613%. For the same molecule, the AC50 under setting [1] was 29.1 µM [falling, single point]. As for `COC(=O)c1c(NC(=O)c2cccs2)sc2c1CCCC2`, the cell number change was -24.1%. Besides, under setting [2], the AC50 is 2.31 µM [falling, partial curve, poor fit]. Further, the AC50 under setting [1] is 0.184 µM [falling, full curve, poor fit]. For the molecule `CN1CCN(C2=Cc3cc(Cl)ccc3Sc3cc(F)ccc32)CC1`, the cell number change was -79.5%. For the same molecule, the AC50 under setting [2] was 7.31 µM [falling, partial curve]. Turning to `CCCCCCCC(=O)Nc1cc(C(=O)NCc2ccc(C)cc2)ccc1N1CCC2(CC1)CC(c1cccc(Br)c1)=NO2`, the cell number change was -11.9%. Also, under setting [1], the AC50 is 0.651 µM [falling, full curve, poor fit]. On to `Cc1ccc(F)cc1NC(=O)CCC(=O)c1cccs1`, for which the cell number change is 24%. Moreover, the AC50 under setting [1] is 0.00517 µM [rising, full curve, poor fit]. On to `CC(C)COC(=O)NCCCOC(=O)Nc1ccccc1`, for which the cell number change was -32.6%. For the same molecule, the AC50 under setting [2] was 9.2 µM [falling, single point]. Besides, the AC50 under setting [1] is 1.3 µM [falling, partial curve]. With `CC1CCc2nn(CC(=O)NCCCN3CCCCC3)cc2C1` (stereo not drawn), the cell number change is -9.22%. Moreover, the AC50 under setting [1] is 0.0651 µM [falling, full curve, poor fit]. Regarding `Cc1ccc(-n2ncc3c2CCCC3NC(=O)CCc2c(C)noc2C)cc1C` (stereo not drawn), the cell number change was -22.3%. Also, the AC50 under setting [2] was 0.651 µM [rising, single point].

Turning to `O=C(c1cccnc1)c1cccnc1`, the cell number change was found to be 30%. Moreover, under setting [2], the AC50 is 23.1 µM [rising, single point]. Also, under setting [1], the AC50 is 29.1 µM [rising, single point]. As for `CC(C)N(CC(N)=O)C(=O)c1sc2cc(F)ccc2c1Cl`, the cell number change was -33.9%. For the same molecule, under setting [2], the AC50 was 0.82 µM [falling, full curve, poor fit]. The AC50 under setting [1] was 0.651 µM [falling, full curve]. For `CCc1cccc2c(C(=O)CCl)c[nH]c12`, the cell number change was -38.2%. The AC50 under setting [2] is 16.4 µM [falling, single point]. Further, the AC50 under setting [1] was 20.6 µM [falling, partial curve]. Turning to `COc1ccc(Nc2nc(C)cc(C)c2C#N)cc1`, the cell number change was -1.02%. Under setting [1], the AC50 is 0.184 µM [rising, full curve, poor fit]. Consider `CC(C)CC[n+]1ccccc1/C=C/c1ccc(N(C)C)cc1`, for which the cell number change is -98.6%. Besides, the AC50 under setting [2] was 5.8 µM [falling, full curve]. The AC50 under setting [1] was 4.61 µM [falling, full curve]. For `CCC(C)(C)NC(=O)C(c1ccc(OC)cc1)N(Cc1ccco1)C(=O)CCC(=O)Nc1cc(C)on1` (stereo not drawn), the cell number change is -36.8%. For the same molecule, under setting [2], the AC50 is 16.4 µM [falling, partial curve]. The AC50 under setting [1] is 16.4 µM [falling, partial curve].

Regarding `[N-]=[N+]=NC[C@H](c1ccccc1)N1CCN(Cc2ccccc2)CCC1=O`, the cell number change is -7.77%. Under setting [1], the AC50 was 29.1 µM [falling, single point]. With `CCOc1ccc(NCc2cccn2-c2nnc(N3CCC(C(=O)NCCCN4CCCCC4C)CC3)s2)cc1` (stereo not drawn), the cell number change was 17.4%. Also, the AC50 under setting [1] was 0.411 µM [rising, full curve, poor fit]. As to `CC(C)(C)OC(=O)N1CCC(NC(=O)c2nc[nH]c2C(=O)N2CCc3ccccc3C2)CC1`, the cell number change is 4.52%. In addition, the AC50 under setting [1] was 0.164 µM [rising, full curve]. For the molecule `COC(=O)c1ccc(/C=N/Nc2nc(C)c(C)s2)cc1`, the cell number change was -17.7%. Under setting [1], the AC50 is 11.6 µM [falling, single point].

Turning to `COc1ccccc1-n1cnnc1SCC(=O)Nc1nc(C)c(Cl)cc1Cl`, the AC50 runs as follows: under setting [2], 3.26 µM [rising, single point]; under setting [1], 6.51 µM [rising, single point].

On to `Cc1cccc([C@@H]2[C@@H]3C(=O)N(Cc4ccccc4)C(=O)[C@@H]3[C@]3(Cc4ccccc4)C(=O)N(c4cccc(F)c4)C(=O)N23)c1`, for which the cell number change is -8.51%. Under setting [1], the AC50 is 29.1 µM [rising, single point]. Regarding `Cc1cc(C)c(S(=O)(=O)Nc2ccccn2)c(C)c1`, the cell number change is 0.829%. In the case of `O=C(CSc1nncc2ccccc12)Nc1ccc(C(=O)O)cc1`, the cell number change stood at 11.5%. In addition, under setting [2], the AC50 was 4.11 µM [rising, single point]. Also, under setting [1], the AC50 is 29.1 µM [rising, single point]. Regarding `O=C(Nc1ccc(F)c(Cl)c1)c1ccccc1`, the cell number change turned out to be 43.4%. Besides, the AC50 under setting [2] is 18.4 µM [rising, single point]. The AC50 under setting [1] was 14.6 µM [rising, partial curve]. As to `COc1ccccc1C(=O)c1cc2ccc(O)cc2oc1=O`, under setting [1], the AC50 is 25.9 µM [rising, partial curve, poor fit]. With `O=C(c1ccc(Cl)cc1)N1CCn2c1nc1ccccc12`, the cell number change is 39.3%. Besides, the AC50 under setting [2] is 0.103 µM [rising, full curve, poor fit]. Further, the AC50 under setting [1] was 7.31 µM [rising, partial curve, poor fit].

In the case of `CC1CCc2c(sc3nc(CN4CCOCC4)nc(NS(=O)(=O)c4cccc([N+](=O)[O-])c4)c23)C1` (stereo not drawn), the AC50 under setting [1] was 6.51 µM [rising, partial curve, poor fit]. Still for that read-out and setting: the result for `O=C(Nc1ccc(C(F)(F)F)cc1)c1cccnc1N1CCOCC1` reads 6.51 µM [rising, single point]. For the molecule `CCN1CCN(C(=S)Nc2sc(C)c(-c3ccccc3)c2C(=O)OC)CC1`, the cell number change was -7.37%. Besides, the AC50 under setting [1] is 4.11 µM [rising, full curve]. In the case of `CN1CCN(NC(=S)NC2CCCC2)CC1`, the cell number change is -28.9%. On to `CC1CCc2c(sc(/N=C/c3cccnc3)c2C(N)=O)C1` (stereo not drawn), for which the cell number change stood at 6.67%. In addition, under setting [1], the AC50 was 1.64 µM [falling, partial curve, poor fit]. As for `CC1(C)CC(=O)C2=C(C1)OC(N)=C(C#N)C2C#Cc1ccccc1` (stereo not drawn), the cell number change is 12.6%. The AC50 under setting [1] was 2.06 µM [rising, partial curve]. `Cc1nc(N2CCN(C(=O)c3cccs3)CC2)c2c3c(sc2n1)CCCC3`: the cell number change was -30.5%. In addition, the AC50 under setting [1] was 29.1 µM [rising, single point]. Take `O=C(N/N=C\c1ccc(COc2ccc([N+](=O)[O-])cc2)o1)c1cccc(Cl)c1`: the cell number change was -34.6%. The AC50 under setting [2] was 3.66 µM [falling, full curve, poor fit]. Moreover, the AC50 under setting [1] was 11.6 µM [falling, partial curve]. For `O=C(Nc1ccc2oc(-c3ccccc3F)nc2c1)c1ccc([N+](=O)[O-])o1`, the cell number change was -1.65%. Moreover, the AC50 under setting [1] was 0.92 µM [falling, full curve, poor fit]. Consider `COc1ccc(CCNC(=O)c2ccc(Cl)nc2)cc1`, for which the cell number change was -10.5%. With `COc1ccc(F)cc1S(=O)(=O)NCCCn1ccnc1`, the cell number change was -16%. `N#CCC(=O)Nc1ccc(C(=O)OCC(=O)Nc2ccc3ccccc3c2)cc1`: the AC50 under setting [1] is 1.84 µM [rising, partial curve]. For `Cc1nc2c(c(C)c1C#N)C(=O)c1ccccc1-2`, the cell number change is 5.41%.

Consider `O=C(O)c1cc(NC(=O)c2cccc(F)c2)cc(NC(=O)c2cccc(F)c2)c1`, for which the cell number change was -15.9%. Consider `CSc1ncccc1C(=O)Nc1ccc2nc(C)sc2c1`, for which the cell number change was found to be 7.12%. The AC50 under setting [1] is 0.0461 µM [rising, full curve, poor fit]. As for `COCCCN1CN(Cc2ccco2)CNC1=S`, the cell number change came out at 4.91%. For the molecule `CN(C)/C=N/c1nc2nccc(-c3cccc(Cl)c3)n2n1`, the AC50 under setting [2] is 0.146 µM [rising, full curve, poor fit] and the AC50 under setting [1] is 0.13 µM [rising, full curve, poor fit].

`C/C(=N\NS(=O)(=O)c1ccc(Br)cc1)c1cccs1`: the cell number change was -17.2%. The AC50 under setting [1] is 6.51 µM [falling, single point].

In the case of `COc1ccc(N2CCN(C(CNC(=O)c3cccc(Cl)c3)c3cccnc3)CC2)cc1` (stereo not drawn), the cell number change worked out at 2.05%. In addition, the AC50 under setting [1] was 0.164 µM [rising, full curve, poor fit].

Take `C=CCn1c(=O)n(C(=O)OCC)c2cc(Br)ccc21`: the AC50 under setting [1] was 25.9 µM [rising, partial curve].

For the molecule `CCc1nnc(SCC(=O)Nc2nnc(C)s2)n1CC1CCCO1` (stereo not drawn), the cell number change is -24.9%.
